Reference: PubChem BioAssay AID1224831 (NIAID, 2016)
Purpose: 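Retesting screen hits on the TLR4-driven TNF response with six separate siRNAs each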 (follow-up of hits). Cells: human THP-1 B5 monocytic leukaemia cells carrying a TNF promoter luciferase reporter, made macrophage-like with PMA. Reagent: single siRNA against human genes, 50 nM. Duration: about 68 h of knock-down, then 4 h LPS. Conditions: LPS (Salmonella minnesota, TLR-grade) at 10 ng/ml for 4 h; PMA 5 ng/ml present during knock-down. Measured: 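Firefly to renilla luciferase ratio of a TNF promoter reporter after 4 h LPS, scaled to plate median, turned into robust z-score, averaged over replicates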. Scale: TNF reporter z-score: higher = stronger LPS-induced TNF reporter signal; z-score, median over gene's siRNAs: higher = stronger TNF reporter signal across the gene's siRNAs. Rule for the call: 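Active when the replicate mean z-score is about -1 or lower, or about 1.5 or higher; lowered and raised TNF reporter signal both count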. Calls: active = changed TNF reporter (either direction); inactive = little change.
In all, the deposit lists about 3,500 reagents; shown is an unselected part. 731 of them (21%) count as active. 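Active means either lowered or raised reporter signal; the gene-median score did not drive the per-siRNA calls.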 The numbers tell different reagents against one gene apart. Reagent sequences are not shown.

target	reagent no.	TNF reporter z-score, replicate mean	z-score, median over gene's siRNAs	Outcome
BTNL8	1	-1.45	-0.465	active
BTNL8	2	-0.77	-0.465	inactive
BTNL8	3	-0.72	-0.465	inactive
BTNL8	4	-0.21	-0.465	inactive
BTNL8	5	0.04	-0.465	inactive
BTNL8	6	0.9	-0.465	inactive
HNRNPC	1	-0.38	-0.07	inactive
HNRNPC	2	0.63	-0.07	inactive
HNRNPC	3	0.42	-0.07	inactive
HNRNPC	4	0.08	-0.07	inactive
HNRNPC	5	-0.85	-0.07	inactive
HNRNPC	6	-0.22	-0.07	inactive
VGLL3	1	-0.34	-0.39	inactive
VGLL3	2	-0.44	-0.39	inactive
VGLL3	3	-0.32	-0.39	inactive
VGLL3	4	-0.87	-0.39	inactive
VGLL3	5	-0.69	-0.39	inactive
VGLL3	6	0.62	-0.39	inactive
B3GLCT	1	-0.51	-0.59	inactive
B3GLCT	2	-0.79	-0.59	inactive
B3GLCT	3	0.24	-0.59	inactive
B3GLCT	4	-0.67	-0.59	inactive
B3GLCT	5	-1.1	-0.59	active
B3GLCT	6	-0.12	-0.59	inactive
BMPR2	1	-0.79	-0.245	inactive
BMPR2	2	-0.45	-0.245	inactive
BMPR2	3	-1.08	-0.245	active
BMPR2	4	0.61	-0.245	inactive
BMPR2	5	0.48	-0.245	inactive
BMPR2	6	-0.04	-0.245	inactive
BMP7	1	-1.13	-0.375	active
BMP7	2	0.49	-0.375	inactive
BMP7	3	-0.03	-0.375	inactive
BMP7	4	-0.85	-0.375	inactive
BMP7	5	0.06	-0.375	inactive
BMP7	6	-0.72	-0.375	inactive
YARS1	1	0.97	-0.405	inactive
YARS1	2	-0.05	-0.405	inactive
YARS1	3	0.03	-0.405	inactive
YARS1	4	-0.76	-0.405	inactive
YARS1	5	-1.47	-0.405	active
YARS1	6	-0.96	-0.405	inactive
UBXN10	1	-0.89	0.135	inactive
UBXN10	2	0.22	0.135	inactive
UBXN10	3	1.14	0.135	inactive
UBXN10	4	0.05	0.135	inactive
UBXN10	5	-0.08	0.135	inactive
UBXN10	6	1.82	0.135	active
ZNF324	1	-0.84	-0.335	inactive
ZNF324	2	-0.41	-0.335	inactive
ZNF324	3	0.22	-0.335	inactive
ZNF324	4	0.4	-0.335	inactive
ZNF324	5	-0.26	-0.335	inactive
ZNF324	6	-1.88	-0.335	active
RBMX	1	0.91	0.71	inactive
RBMX	2	-0.31	0.71	inactive
RBMX	3	1.28	0.71	inactive
RBMX	4	0.85	0.71	inactive
RBMX	5	0.57	0.71	inactive
RBMX	6	0.56	0.71	inactive
NDUFS8	1	-0.38	0.04	inactive
NDUFS8	2	0.13	0.04	inactive
NDUFS8	3	-0.81	0.04	inactive
NDUFS8	4	-0.05	0.04	inactive
NDUFS8	5	2.68	0.04	active
NDUFS8	6	1.11	0.04	inactive
SNAPIN	1	-0.04	-0.34	inactive
SNAPIN	2	-0.37	-0.34	inactive
SNAPIN	3	-0.31	-0.34	inactive
SNAPIN	4	0.41	-0.34	inactive
SNAPIN	5	-0.45	-0.34	inactive
SNAPIN	6	-0.41	-0.34	inactive
MTOR	1	0.6	0.485	inactive
MTOR	2	0.98	0.485	inactive
MTOR	3	0.37	0.485	inactive
MTOR	4	-0.55	0.485	inactive
MTOR	5	0.21	0.485	inactive
MTOR	6	0.72	0.485	inactive
CDK1	1	0.34	0.285	inactive
CDK1	2	-0.07	0.285	inactive
CDK1	3	1.45	0.285	inactive
CDK1	4	0.23	0.285	inactive
CDK1	5	-0.32	0.285	inactive
CDK1	6	3.08	0.285	active
